Data as given in PubChem BioAssay AID602196 (INSERM, 2012)
This is a random part of about 23,000 reagents. 455 of them (2%) were called active. 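Active includes both protection and sensitisation; some change values fall well beyond the stated -50 to +50 range.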 Entries without a mark were called inactive. Further read-outs or replicates are left out here. Not given: the amount of reagent.

Test: 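Modifiers of cisplatin sensitivity in A549 cells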
System: human A549 lung cancer cells
Knock-down reagent: siRNA pair against human genes
Timing: 48 h transfection before cisplatin; time from cisplatin to read-out not stated
Conditions: cisplatin at a dose killing half of control-siRNA cells; exact dose and duration not given
Read-out: 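Cisplatin cell death as a shift from the 50% death seen with control siRNA; siRNAs toxic or growth-blocking alone scored 0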
Direction: two-siRNA summed score (-2 to +2): higher = both siRNAs protect from cisplatin killing; -2 means both sensitise; mean protection from cisplatin (shift in death): higher = protection from cisplatin killing
Call rule: 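Each siRNA scores 0 if harmful alone by LDH or WST-1, otherwise +1 if it reduces and -1 if it increases cisplatin killing; a gene is active when both siRNAs agree (sum +2 or -2)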
Meaning of the calls: active = both siRNAs shift cisplatin killing the same way; inactive = no consistent shift, or siRNA harmful alone

no.	gene symbol	PubChem SID	two-siRNA summed score (-2 to +2)	mean protection from cisplatin (shift in death) (%)
1	LOC441197	SID131516480	0	10.9
2	MICAL2	SID131511630	0	4.6
3	MICAL2	SID131515511	0	9.3
4	DMRTA2	SID131511245	0	4.1
5	KRTAP10-10	SID131516033	0	10.1
6	THBS4	SID131512329	0	5.4
7	PCED1A	SID131514126	0	7.4
8	IL38	SID131517855	0	15.1
9	GRPEL1	SID131519797	1	7.5
10	TCERG1	SID131513138	0	6.2
11	EGF	SID131517656	0	14.2
12	SNRPF	SID131518044	0	16.1
13	GSC2	SID131521034	1	11.9
14	ZMAT4	SID131507983	0	0.5
15	ANGPT4	SID131502799	0	-36.3
16	SLC35F5	SID131506008	0	-2.2
17	CRIP3	SID131518601	0	22.4
18	ZNF503	SID131510305	0	3.1
19	ZNF599	SID131518613	0	22.6
20	GPBP1L1	SID131500800	-1	-15.8
21	SOX8	SID131520435	1	9.9
22	MARCKSL1	SID131501171	-1	-11.8
23	POPDC2	SID131505342	0	-3.3

Already shown: an excerpt of the list.
no.	gene symbol	PubChem SID	two-siRNA summed score (-2 to +2)	mean protection from cisplatin (shift in death) (%)
14	ZMAT4	SID131507983	0	0.5
15	ANGPT4	SID131502799	0	-36.3
